The shares of active, inactive and inconclusive entries below differ from those in the screen. Potencies beside an inconclusive call are fits to weak or partial responses and may not hold up. Calls of active or inactive are those of the source. Calls follow the shape of the dose curve; as a rule, active = well fitted curve in the direction sought with a large enough effect; inconclusive = small, poorly fitted or top-dose-only effect, or another doubt; inactive = no such curve, though single readings can be large; an effect the other way counts as inactive or inconclusive.
Key:
[1] = Quantitative High-Throughput drug screen in 47 multiple myeloma cell lines against the NCATS MIPE library collection: Karpas417_ECACC cell viability assay (AID 1918961); settings: Karpas417 myeloma viability, CellTiter-Glo ATP luminescence, 48 h; viability (% of DMSO): at 45.8 µM (top of the series)
Outline: (§1)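 Myeloma cell lines, 500 cells per well, exposed to MIPE 4.0 library compounds for 48 h at 37C, 5% CO2. Viability from ATP by CellTiter-Glo luminescence; normalised to DMSO (100%) and media-only (0%) wells.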

[2] = Quantitative High-Throughput drug screen in 47 multiple myeloma cell lines against the NCATS MIPE library collection: KHM11_PLB cell viability assay (AID 1918962); settings: KHM11 myeloma cell viability, CellTiter-Glo ATP luminescence, 48 h; viability, % of DMSO control: at 45.8 µM (top of the series); also: nearly all actives have a fitted effect of over 35% in size
Outline: as §1

[3] = Quantitative High-Throughput drug screen in 47 multiple myeloma cell lines against the NCATS MIPE library collection: JIM3_ECACC cell viability assay (AID 1918963; also: nearly all actives have a fitted effect of over 35% in size); settings: JIM3 myeloma viability, CellTiter-Glo ATP, 48 h; viability, percent of control: at 45.8 µM (top of the series)
Outline: as §1

[4] = Quantitative High-Throughput drug screen in 47 multiple myeloma cell lines against the NCATS MIPE library collection: JIM1_ECACC cell viability assay (AID 1918964); settings: JIM1 myeloma viability, CellTiter-Glo ATP luminescence, 48 h; viability (% of DMSO): at 45.8 µM (top of the series)
Outline: (§2)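 Approved and investigational drugs from MIPE 4.0 were added by pin tool to 500 cells per well. After 48 hours at 37C, ATP-based CellTiter-Glo luminescence indicated remaining viability.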

[5] = Quantitative High-Throughput drug screen in 47 multiple myeloma cell lines against the NCATS MIPE library collection: INA6_PLB cell viability assay (AID 1918965; also: nearly all actives have a fitted effect of over 55% in size); settings: INA6 myeloma viability, CellTiter-Glo ATP luminescence, 48 h; viability (% of control): at 45.8 µM (top of the series)
Outline: as §1

[6] = Quantitative High-Throughput drug screen in 47 multiple myeloma cell lines against the NCATS MIPE library collection: JJN3_DSMZ cell viability assay (AID 1918966; also: nearly all actives have a fitted effect of over 50% in size)
Outline: as §2

[7] = Quantitative High-Throughput drug screen in 47 multiple myeloma cell lines against the NCATS MIPE library collection: Karpas25_ECACC cell viability assay (AID 1918968; also: nearly all actives have a fitted effect of over 35% in size)
Outline: as §2

[8] = Quantitative High-Throughput drug screen in 47 multiple myeloma cell lines against the NCATS MIPE library collection: KMS27_JCRB cell viability assay (AID 1918970); settings: KMS27 myeloma cells, CellTiter-Glo ATP viability, 48 h; viability (% of DMSO): at 45.8 µM (top of the series); also: nearly all actives have a fitted effect of over 30% in size
Outline: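 Viability inhibition screen, 48 h compound exposure, luminescent ATP read-out.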

[9] = Quantitative High-Throughput drug screen in 47 multiple myeloma cell lines against the NCATS MIPE library collection: KMS12BM_JCRB cell viability assay (AID 1918971); also: nearly all actives have a fitted effect of over 35% in size
Outline: (§3)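 Steps: seed 500 cells per well; pin-transfer MIPE 4.0 library; incubate 48 h at 37C, 5% CO2, humidified; add CellTiter-Glo, 5 min room temperature; read luminescence.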

[10] = Quantitative High-Throughput drug screen in 47 multiple myeloma cell lines against the NCATS MIPE library collection: KMS12PE_JCRB cell viability assay (AID 1918972); settings: KMS12PE myeloma viability, CellTiter-Glo ATP, 48 h; viability: at 45.8 µM (top of the series); also: nearly all actives have a fitted effect of over 30% in size
Outline: as §1

[11] = Quantitative High-Throughput drug screen in 47 multiple myeloma cell lines against the NCATS MIPE library collection: KMS20_JCRB cell viability assay (AID 1918973); settings: CellTiter-Glo ATP, 48 h; viability (% of DMSO): at 45.8 µM (top of the series); also: nearly all actives have a fitted effect of over 45% in size
Outline: as §2

[12] = Quantitative High-Throughput drug screen in 47 multiple myeloma cell lines against the NCATS MIPE library collection: KMS21BM_JCRB cell viability assay (AID 1918974); settings: ATP luminescence, 48 h; viability: at 45.8 µM (top of the series)
Outline: as §2

[13] = Quantitative High-Throughput drug screen in 47 multiple myeloma cell lines against the NCATS MIPE library collection: KMS26_JCRB cell viability assay (AID 1918975); settings: KMS26 myeloma cells viability, CellTiter-Glo ATP, 48 h; viability (% of DMSO): at 45.8 µM (top of the series); also: nearly all actives have a fitted effect of over 45% in size
Outline: as §3

[14] = Quantitative High-Throughput drug screen in 47 multiple myeloma cell lines against the NCATS MIPE library collection: MMM1_PLB cell viability assay (AID 1918976); also: nearly all actives have a fitted effect of over 35% in size
Outline: (§4)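 500 cells/well per myeloma line exposed to pinned MIPE 4.0 compounds for 48 h at 37 °C, 5% CO2. Viability read as ATP by CellTiter-Glo luminescence, normalised to DMSO-only (100%) and media-only (0%) wells.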

[15] = Quantitative High-Throughput drug screen in 47 multiple myeloma cell lines against the NCATS MIPE library collection: MOLP8_DSMZ cell viability assay (AID 1918977); also: nearly all actives have a fitted effect of over 45% in size
Outline: as §4

[16] = Quantitative High-Throughput drug screen in 47 multiple myeloma cell lines against the NCATS MIPE library collection: MM1S_ATCC cell viability assay (AID 1918980); also: nearly all actives have a fitted effect of over 45% in size
Outline: as §4

[17] = Quantitative High-Throughput drug screen in 47 multiple myeloma cell lines against the NCATS MIPE library collection: OCIMY1_PLB cell viability assay (AID 1918979); also: nearly all actives have a fitted effect of over 35% in size
Outline: as §4

[18] = Quantitative High-Throughput drug screen in 47 multiple myeloma cell lines against the NCATS MIPE library collection: MM1R_ATCC cell viability assay (AID 1918981); also: nearly all actives have a fitted effect of over 35% in size
Outline: as §4

[19] = Quantitative High-Throughput drug screen in 47 multiple myeloma cell lines against the NCATS MIPE library collection: NCIH929_DSMZ cell viability assay (AID 1918978); settings: NCI-H929 myeloma viability, CellTiter-Glo ATP, 48 h; viability, % of control: at 45.8 µM (top of the series); also: nearly all actives have a fitted effect of over 35% in size
Outline: as §4
Potency is read from the fitted curve at half-maximal effect.

Row | SMILES | Potency [1] | Potency [2] | Potency [3] | Potency [4] | Potency [5] | Potency [6] | Potency [7] | Potency [8] | Potency [9] | Potency [10] | Potency [11] | Potency [12] | Potency [13] | Potency [14] | Potency [15] | Potency [16] | Potency [17] | Potency [18] | Potency [19] | viability (% of DMSO) [1]
1 | CC(C)[C@H]1C(=O)N[C@H](CO)Cc2c[nH]c3cccc(c23)N1C | inconclusive: 0.0296 µM [cytotoxic, full curve, poor fit] | inconclusive: 18.7 µM [rising, partial curve, poor fit] | inconclusive: 0.132 µM [cytotoxic, partial curve, poor fit] | inconclusive: 0.0296 µM [rising, full curve, poor fit] | inconclusive: 0.0526 µM [cytotoxic, full curve] | inconclusive: 0.0066 µM [rising, full curve, poor fit] | inconclusive: 0.526 µM [cytotoxic, partial curve, poor fit] | inconclusive: 0.0935 µM [rising, full curve, poor fit] | inconclusive: 0.0023 µM [rising, full curve, poor fit] | inconclusive: 0.001 µM | inconclusive: 0.0743 µM [cytotoxic, full curve, poor fit] | inactive | inactive | inactive | active: 0.166 µM | inconclusive: 2.09 µM [rising, partial curve, poor fit] | – | – | – | –
2 | C[C@](O)(CS(=O)(=O)c1ccc(F)cc1)C(=O)Nc1ccc(C#N)c(C(F)(F)F)c1 | active: 0.935 µM | active: 0.833 µM | active: 2.35 µM | inconclusive: 1.05 µM [cytotoxic, full curve, poor fit] | active: 1.18 µM | – | active: 0.418 µM | inactive | active: 26.4 µM | – | active: 0.833 µM | active: 6.62 µM | – | inconclusive: 0.0105 µM [rising, full curve, poor fit] | inconclusive: 14.8 µM [cytotoxic, partial curve, poor fit] | – | inconclusive: 23.5 µM [cytotoxic, single point] | active: 2.35 µM | – | –
3 | CC(=O)N(C)c1cccc(-c2ccnc3c(C(=O)c4cccs4)cnn23)c1 | active: 23.5 µM | inconclusive: 7.43 µM [cytotoxic, full curve, poor fit] | inactive | inconclusive: 0.0372 µM [rising, full curve, poor fit] | active: 14.8 µM | inconclusive: 18.7 µM [cytotoxic, partial curve, poor fit] | inactive | – | inactive | inconclusive: 33.2 µM [cytotoxic, single point] | inconclusive: 0.003 µM [rising, full curve, poor fit] | inactive | – | active: 2.96 µM | inactive | inconclusive: 26.4 µM [cytotoxic, single point] | inactive | inconclusive: 5.26 µM [cytotoxic, partial curve, poor fit] | inconclusive: 20.9 µM [cytotoxic, partial curve, poor fit] | –
4 | O=C(O)CNC(=O)c1c(O)c2ccccc2n(Cc2ccccc2)c1=O | – | inconclusive: 0.0059 µM [rising, full curve, poor fit] | inactive | inactive | inconclusive: 0.0019 µM [rising, full curve, poor fit] | inconclusive: 0.0033 µM [cytotoxic, full curve, poor fit] | – | – | inactive | – | inconclusive: 33.2 µM [cytotoxic, single point] | inconclusive: 33.2 µM [rising, partial curve] | – | inconclusive: 0.0105 µM [cytotoxic, full curve, poor fit] | inactive | inconclusive: 18.7 µM [cytotoxic, partial curve, poor fit] | – | – | inactive | inconclusive: 141%
5 | CC(C)c1cccc(C(C)C)c1O | inconclusive: 18.7 µM [rising, partial curve, poor fit] | inconclusive: 11.8 µM [cytotoxic, full curve, poor fit] | inactive | inactive | inactive | inconclusive: 0.001 µM [cytotoxic] | inactive | inconclusive: 0.372 µM [cytotoxic, full curve, poor fit] | inconclusive: 26.4 µM [cytotoxic, single point] | – | inactive | inconclusive: 37.2 µM [rising, partial curve] | inconclusive: 0.0118 µM [rising, full curve, poor fit] | inconclusive: 9.35 µM [cytotoxic, partial curve, poor fit] | inactive | – | inactive | – | – | –
6 | CC(C)CC(N(C)C)C1(c2ccc(Cl)cc2)CCC1 (centres undefined) | inconclusive: 18.7 µM [rising, partial curve, poor fit] | inactive | inactive | inactive | inconclusive: 0.264 µM [cytotoxic, full curve, poor fit] | inactive | inconclusive: 23.5 µM [cytotoxic, single point] | – | inconclusive: 20.9 µM [cytotoxic, single point] | – | inconclusive: 37.2 µM [cytotoxic, partial curve, poor fit] | inconclusive: 33.2 µM [rising, partial curve, poor fit] | – | inconclusive: 20.9 µM [cytotoxic, partial curve, poor fit] | inactive | active: 5.26 µM | – | inconclusive: 16.6 µM [cytotoxic, single point] | – | –
